Data: article PMC4850456, “Phenylbutazone induces expression of MBNL1 and suppresses formation of MBNL1-CUG RNA foci in a mouse model of myotonic dystrophy”
Construct, isoform or probe ends are uncertain for at least one entry. Weaker means in comparison with the reference protein, sequence or condition of that experiment. Tags and fusion partners may be left off the protein sequences shown.

Biological target: T1, GST-MBNL1 (1-260) (UniProt Q9NR56)
T1 sequence (looked up): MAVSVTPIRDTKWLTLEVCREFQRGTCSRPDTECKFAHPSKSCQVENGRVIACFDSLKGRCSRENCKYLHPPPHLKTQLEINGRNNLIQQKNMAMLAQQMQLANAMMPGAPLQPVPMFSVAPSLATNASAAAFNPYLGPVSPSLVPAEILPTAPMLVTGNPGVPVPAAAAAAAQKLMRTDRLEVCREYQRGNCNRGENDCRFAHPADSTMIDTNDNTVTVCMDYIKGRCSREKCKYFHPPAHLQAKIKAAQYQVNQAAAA
Assay: EMSA
Conditions: phenylbutazone added after complex formation, dose-dependent decrease of complex; 10 mM Tris-HCl pH 7.5, 50 mM KCl, 1 mM DTT, room temperature 30 min, 20 ul; 6 ug protein, RNA 2.5 pmol/ul; then PBZ 15 min at room temperature; recombinant protein; residues 1-260; label: 5'-biotin

Sequence: GCCUGCUGCUGCUGCUGCUGCUGCUGCUGCUGGC [CUG repeat RNA probe]
- binding result: binds more weakly
